The other results are listed elsewhere or left out. Many values rest on one well or one pass, so single values are uncertain.
Test system: Caenorhabditis elegans ST65 (ncIs13[ajm-1::GFP])
Assay: 'Larvae/adult' ratio (MetaXpress pharynx counts; minimum value 1, so it appears to include adults; growth inhibition read-out)
Settings: 10 µM; exposure time: 4-5 days from L1 at 20°C

SMILES | 'Larvae/adult' ratio
CCS(=O)(=O)N1CCN(c2ccc(Nc3ncc(C(N)=O)c(NC4CC4)n3)cc2)CC1 | 4.5
Cc1c(F)cc(C(=O)NC2CC2)cc1-c1ccc(C(=O)NCC(C)(C)C)cn1 | 1.67
CN1CCN(CCOc2cc(OC3CCOCC3)c3c(Nc4c(Cl)ccc5c4OCO5)ncnc3c2)CC1 [Saracatinib (AZD0530)] | 3.08
Nc1nc2[nH]cc(CCc3ccc(C(=O)N[C@@H](CCC(=O)O)C(=O)O)cc3)c2c(=O)[nH]1 [Pemetrexed] | 1.63
CC/C(=C(\c1ccccc1)c1ccc(OCCN(C)C)cc1)c1ccccc1 [Tamoxifen] | 1.76
CN(Cc1cnc2nc(N)nc(N)c2n1)c1ccc(C(=O)N[C@@H](CCC(=O)O)C(=O)O)cc1 [Methotrexate] | 1.71
O=C(O)c1ccc2c(c1)nc(Nc1cccc(Cl)c1)c1ccncc12 [Silmitasertib (CX-4945)] | 4.16
O=c1ncn2nc(Sc3ccc(F)cc3F)ccc2c1-c1c(Cl)cccc1Cl | 2.03
CO[C@H]1CC[C@H](N2C(=O)CNc3ncc(-c4ccc(C(C)(C)O)nc4)nc32)CC1 | 2.46
O=C(O)c1ccc(CN2CCC(CN[C@@H]3C[C@H]3c3ccccc3)CC2)cc1 | 1.94
N#CC1(c2ccc(NC(=O)c3cccnc3NCc3ccncc3)cc2)CCCC1 | 2.88
CNC(=O)c1cc(COc2nnc(Nc3ccc(Cl)cc3)c3ccoc23)ccn1 [Telatinib] | 2.25
CCCCNc1ncc(C(=O)NCc2ccc(-n3ccnc3)cc2)c(NC2CCC(O)CC2)n1 (stereo unspecified) | 1.98
CCN1CCN(Cc2ccc(Nc3ncc(F)c(-c4cc(F)c5nc(C)n(C(C)C)c5c4)n3)nc2)CC1 [Abemaciclib] | 1.68
Cc1cccc(-c2[nH]c(CNc3ccccc3F)nc2-c2ccc3ncnn3c2)n1 [Vactosertib ?(TEW-7197)] | 1.75
C=CC(=O)N1CCC[C@@H](n2nc(-c3ccc(Oc4ccccc4)cc3)c3c(N)ncnc32)C1 | 1.71
CCCCCCCCCCCCCCCCCCOP(=O)([O-])OC1CC[N+](C)(C)CC1 [Perifosine (KRX-0401)] | 1.79

Test system: Caenorhabditis elegans ST65 (ncIs13[ajm-1::GFP])
Assay: vulvae per adult worm (MAPK/ERK-dependent vulval induction, MetaXpress) (vulvae/adult); higher = more vulval induction (less MAPK/ERK inhibition)
Settings: 10 µM; exposure time: 4-5 days from L1 at 20°C

SMILES | vulvae per adult worm
NC(=O)c1cnc2[nH]ccc2c1N[C@@H]1[C@@H]2CC3C[C@H]1C[C@@](O)(C3)C2 | 1.34
CCC(C)n1ncn(-c2ccc(N3CCN(c4ccc(OCC5COC(Cn6cncn6)(c6ccc(Cl)cc6Cl)O5)cc4)CC3)cc2)c1=O (stereo unspecified) [Itraconazole] | 0.889
COc1cc2ncnc(Oc3cccc(NC(=O)Nc4cc(C(C)(C)C(F)(F)F)on4)c3)c2cc1OC | 0.773
Cc1cc2c(C(=O)NC[C@H](C)c3ccccc3)c(O)c(O)cc2c(O)c1-c1c(C)cc2c(C(=O)NC[C@H](C)c3ccccc3)c(O)c(O)cc2c1O [Sabutoclax] | 0.75
CN1CCc2c(c3ccccc3n2Cc2ccc(C(=O)NO)cc2)C1 [Tubastatin A] | 1.02
COC(=O)C[C@](O)(CCCC(C)(C)O)C(=O)O[C@@H]1C(OC)=C[C@]23CCCN2CCc2cc4c(cc2[C@H]13)OCO4 [Homoharringtonine] | 1.08
C[C@@H](Oc1ccc2[nH]nc(/C=C/c3cnn(CCO)c3)c2c1)c1c(Cl)cncc1Cl | 0.273
CC[C@H](Nc1ncnc2[nH]cnc12)c1nc2cccc(F)c2c(=O)n1-c1ccccc1 [Idelalisib (CAL-101, GS-1101)] | 1.22
N#CC[C@H](C1CCCC1)n1cc(-c2ncnc3[nH]ccc23)cn1 | 0.517
COc1cc2nccc(Oc3ccc(NC(=O)NC4CC4)c(Cl)c3)c2cc1C(N)=O [Lenvatinib (E7080)] | 0.56
OC1CCC(Nc2ncc3nc(Nc4c(F)cc(F)cc4F)n([C@H]4CCOC4)c3n2)CC1 (stereo partly specified) [Tanzisertib(CC-930)] | 0.947
CNC(=O)c1cccc(-c2ccc3c(N4CCOC[C@@H]4C)nc(N4CCOC[C@@H]4C)nc3n2)c1 [Vistusertib (AZD2014)] | 1.9
CC(C)C[C@H](NC(=O)[C@@H](Cc1cccc2ccccc12)NC(=O)[C@H](Cc1ccc(O)cc1)NC(=O)[C@H](CO)NC(=O)[C@H](Cc1c[nH]c2ccccc12)NC(=O)[C@H](Cc1cnc[nH]1)NC(=O)[C@@H]1CCC(=O)N1)C(=O)N[C@@H](CCCNC(=N)N)C(=O)N1CCC[C@H]1C(=O)NCC(N)=O [Nafarelin Acetate] | 0.889
C=CC(=O)Nc1cccc(Nc2nc(Nc3ccc(OCCOC)cc3)ncc2F)c1 [Spebrutinib (CC-292, AVL-292)] | 0.732

Rewritten as tab-separated lines: part of the list above.
SMILES	vulvae per adult worm
CCC(C)n1ncn(-c2ccc(N3CCN(c4ccc(OCC5COC(Cn6cncn6)(c6ccc(Cl)cc6Cl)O5)cc4)CC3)cc2)c1=O (stereo unspecified) [Itraconazole]	0.889
COc1cc2ncnc(Oc3cccc(NC(=O)Nc4cc(C(C)(C)C(F)(F)F)on4)c3)c2cc1OC	0.773
